{"source": "PubChem BioAssay AID504791 – Drosophila RNAi Screening Center | 2011", "test": "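Genes of the fly required for silencing by miRNA, siRNA or endo-siRNA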 (primary screen)", "cell system": "Drosophila S2-derived reporter cells", "reagents": "long dsRNA against Drosophila genes, about 150-250 ng dsRNA per well (siRNA assay); about 80-120 ng (miRNA assay)", "timing": "about 5 days (siRNA assay); about 4 days (miRNA assay)", "conditions": "copper sulfate induction of reporters: 25 µM (siRNA assay); 200 mM stated (miRNA assay), 1-2 days before reading", "measured": "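Dual luciferase assay: Renilla to firefly signal ratio in each well, scaled to the mean ratio of its plate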", "reading the numbers": "siRNA reporter hit score: higher = 3 marks a strong hit with raised ratio; -3 a strong hit with lowered ratio", "call rule": "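a well was a first-pass pick when its plate-scaled ratio rose above 1.5 (siRNA assay) or 1.6 (miRNA assay), or dropped below 0.6; a gene counted only if two separate dsRNAs agreed on retest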", "note": "The deposit covers about 23,000 reagents; shown is a random part of those that have a named target and a result. In the full data, 199 (0.86%) are marked active. 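Plate-scaled ratios behind the calls are not deposited; printed light signals are raw; many rows marked increased or decreased are still called inactive.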 A number with no mark means an inactive call. A plus sign joins genes that one reagent is predicted to hit."}
{"gene": "CG10919", "amplicon": "DRSC14283", "stable assay Renilla, run 1 (luminescence)": 6359, "stable assay firefly, run 1 (luminescence)": 3.74e5}
{"gene": "prt", "amplicon": "DRSC16894", "stable assay Renilla, run 1 (luminescence)": 6002, "stable assay firefly, run 1 (luminescence)": 3.19e5}
{"gene": "CG2915", "amplicon": "DRSC06842", "stable assay Renilla, run 1 (luminescence)": 7718, "stable assay firefly, run 1 (luminescence)": 3.27e5}
{"gene": "CG5568", "amplicon": "DRSC10518", "stable siRNA reporter change": "reporter ratio raised past the hit cutoff", "stable assay Renilla, run 1 (luminescence)": 1364, "stable assay firefly, run 1 (luminescence)": 64776}
{"gene": "CG5568", "amplicon": "DRSC22816", "stable assay Renilla, run 1 (luminescence)": 4671, "stable assay firefly, run 1 (luminescence)": 3.55e5}
{"gene": "Acbp4", "amplicon": "DRSC11023", "stable assay Renilla, run 1 (luminescence)": 7018, "stable assay firefly, run 1 (luminescence)": 4.60e5}
{"gene": "CG10413", "amplicon": "DRSC02052", "stable assay Renilla, run 1 (luminescence)": 26007, "stable assay firefly, run 1 (luminescence)": 1.23e6}
{"gene": "JIL-1", "amplicon": "DRSC11200", "stable assay Renilla, run 1 (luminescence)": 5771, "stable assay firefly, run 1 (luminescence)": 4.48e5}
{"gene": "Dab", "amplicon": "DRSC11140", "siRNA reporter hit score": 3, "stable assay Renilla, run 1 (luminescence)": 5523, "stable assay firefly, run 1 (luminescence)": 5.20e5}
{"gene": "CG9692", "amplicon": "DRSC11091", "stable assay Renilla, run 1 (luminescence)": 6819, "stable assay firefly, run 1 (luminescence)": 3.10e5}
{"gene": "CG14961", "amplicon": "DRSC08420", "stable assay Renilla, run 1 (luminescence)": 5824, "stable assay firefly, run 1 (luminescence)": 3.15e5}
{"gene": "SmydA-5", "amplicon": "DRSC04867", "stable assay Renilla, run 1 (luminescence)": 6566, "stable assay firefly, run 1 (luminescence)": 3.25e5}

A stretch of the results above:
{"gene": "CG10413", "amplicon": "DRSC02052", "stable assay Renilla, run 1 (luminescence)": 26007, "stable assay firefly, run 1 (luminescence)": 1.23e6}
{"gene": "JIL-1", "amplicon": "DRSC11200", "stable assay Renilla, run 1 (luminescence)": 5771, "stable assay firefly, run 1 (luminescence)": 4.48e5}
{"gene": "Dab", "amplicon": "DRSC11140", "siRNA reporter hit score": 3, "stable assay Renilla, run 1 (luminescence)": 5523, "stable assay firefly, run 1 (luminescence)": 5.20e5}
{"gene": "CG9692", "amplicon": "DRSC11091", "stable assay Renilla, run 1 (luminescence)": 6819, "stable assay firefly, run 1 (luminescence)": 3.10e5}
{"gene": "CG14961", "amplicon": "DRSC08420", "stable assay Renilla, run 1 (luminescence)": 5824, "stable assay firefly, run 1 (luminescence)": 3.15e5}
{"gene": "SmydA-5", "amplicon": "DRSC04867", "stable assay Renilla, run 1 (luminescence)": 6566, "stable assay firefly, run 1 (luminescence)": 3.25e5}

Additional results:
{"gene": "dhd", "amplicon": "DRSC18761", "stable assay Renilla, run 1 (luminescence)": 7293, "stable assay firefly, run 1 (luminescence)": 5.19e5}
{"gene": "CG3198", "amplicon": "DRSC18292", "miRNA reporter change": "reporter ratio raised past the hit cutoff", "stable assay Renilla, run 1 (luminescence)": 5315, "stable assay firefly, run 1 (luminescence)": 2.62e5}
{"gene": "CG43980", "amplicon": "DRSC11500", "stable assay Renilla, run 1 (luminescence)": 5366, "stable assay firefly, run 1 (luminescence)": 3.91e5}
{"gene": "CG43980", "amplicon": "DRSC11646", "stable assay Renilla, run 1 (luminescence)": 7493, "stable assay firefly, run 1 (luminescence)": 4.82e5}
{"gene": "Surf1", "amplicon": "DRSC11295", "stable assay Renilla, run 1 (luminescence)": 6198, "stable assay firefly, run 1 (luminescence)": 4.89e5}
{"gene": "Surf1", "amplicon": "DRSC11394", "stable assay Renilla, run 1 (luminescence)": 7957, "stable assay firefly, run 1 (luminescence)": 3.42e5}
{"gene": "Parg", "amplicon": "DRSC18696", "stable assay Renilla, run 1 (luminescence)": 7095, "stable assay firefly, run 1 (luminescence)": 4.24e5}
{"gene": "Efhc1.2", "amplicon": "DRSC06027", "stable assay Renilla, run 1 (luminescence)": 10669, "stable assay firefly, run 1 (luminescence)": 3.92e5}
{"gene": "Ost48", "amplicon": "DRSC18693", "stable assay Renilla, run 1 (luminescence)": 7031, "stable assay firefly, run 1 (luminescence)": 5.02e5}
{"gene": "CG7276", "amplicon": "DRSC10797", "stable assay Renilla, run 1 (luminescence)": 7794, "stable assay firefly, run 1 (luminescence)": 3.50e5}
{"gene": "CG9649", "amplicon": "DRSC16534", "stable assay Renilla, run 1 (luminescence)": 7783, "stable assay firefly, run 1 (luminescence)": 3.97e5}
{"gene": "side-IV + CG17025 (retired record)", "amplicon": "DRSC15168", "stable assay Renilla, run 1 (luminescence)": 7378, "stable assay firefly, run 1 (luminescence)": 4.32e5}
{"gene": "CG13297", "amplicon": "DRSC09971", "stable assay Renilla, run 1 (luminescence)": 7454, "stable assay firefly, run 1 (luminescence)": 6.31e5}
{"gene": "CG9084", "amplicon": "DRSC07335", "stable assay Renilla, run 1 (luminescence)": 6399, "stable assay firefly, run 1 (luminescence)": 4.96e5}
{"gene": "CG18661", "amplicon": "DRSC02690", "stable assay Renilla, run 1 (luminescence)": 7370, "stable assay firefly, run 1 (luminescence)": 3.67e5}
{"gene": "DNaseII", "amplicon": "DRSC16310", "stable assay Renilla, run 1 (luminescence)": 8014, "stable assay firefly, run 1 (luminescence)": 2.97e5}
{"gene": "CG34161", "amplicon": "DRSC01132", "stable assay Renilla, run 1 (luminescence)": 5327, "stable assay firefly, run 1 (luminescence)": 4.18e5}
{"gene": "CG3902", "amplicon": "DRSC10387", "stable assay Renilla, run 1 (luminescence)": 6351, "stable assay firefly, run 1 (luminescence)": 4.65e5}
{"gene": "Gpo1", "amplicon": "DRSC07128", "stable assay Renilla, run 1 (luminescence)": 8418, "stable assay firefly, run 1 (luminescence)": 3.72e5}
{"gene": "CG11076", "amplicon": "DRSC17197", "stable assay Renilla, run 1 (luminescence)": 6051, "stable assay firefly, run 1 (luminescence)": 3.68e5}
{"gene": "CG3698", "amplicon": "DRSC11749", "stable assay Renilla, run 1 (luminescence)": 11038, "stable assay firefly, run 1 (luminescence)": 4.63e5}
{"gene": "CG8066", "amplicon": "DRSC16374", "stable assay Renilla, run 1 (luminescence)": 7200, "stable assay firefly, run 1 (luminescence)": 4.61e5}
{"gene": "p", "amplicon": "DRSC16560", "stable assay Renilla, run 1 (luminescence)": 8070, "stable assay firefly, run 1 (luminescence)": 5.24e5}
